Measurements as given in the supplement of paper PMC11546906.
The list shows a part of the results. This data set is noisy: repeats of one test often differ as much as different tests do.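 Screen of FDA-approved drugs, each combined with colistin at one-eighth of its MIC, against a multidrug-resistant mcr-1-positive clinical E. coli isolate; growth read as OD600 after 24 h. Bacteria without drug were the growth control and plain broth the blank. A combination counted as active when OD600 fell below 0.2.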

test system: Escherichia coli 42 (mcr-1-positive clinical isolate); assay: OD600 after 24 h growth with compound plus colistin (absorbance units (OD600)); higher = more bacterial growth (less inhibition); conditions: first compound 25 µM; colistin concentration 0.5 ug/mL; incubation time 24 h; 37 °C

OD600, inactive:
O=C(NC[C@H]1CN(c2ccc(N3CCOCC3=O)cc2)C(=O)O1)c1ccc(Cl)s1 [Rivaroxaban] + CCC(C)CCCC(=O)N[C@@H](CCN)C(=O)N[C@H](C(=O)N[C@@H](CCN)C(=O)N[C@H]1CCNC(=O)[C@H]([C@@H](C)O)NC(=O)[C@H](CCN)NC(=O)[C@H](CCN)NC(=O)[C@H](CC(C)C)NC(=O)[C@@H](CC(C)C)NC(=O)[C@H](CCN)NC1=O)[C@@H](C)O [colistin] 1.06
Cc1c(OCC(F)(F)F)ccnc1C[S+]([O-])c1nc2ccccc2[nH]1 (centres undefined) [Lansoprazole] + CCC(C)CCCC(=O)N[C@@H](CCN)C(=O)N[C@H](C(=O)N[C@@H](CCN)C(=O)N[C@H]1CCNC(=O)[C@H]([C@@H](C)O)NC(=O)[C@H](CCN)NC(=O)[C@H](CCN)NC(=O)[C@H](CC(C)C)NC(=O)[C@@H](CC(C)C)NC(=O)[C@H](CCN)NC1=O)[C@@H](C)O [colistin] 1.17
Cc1onc(-c2c(Cl)cccc2Cl)c1C(=O)N[C@@H]1C(=O)N2[C@@H]1SC(C)(C)[C@@H]2C(=O)O [Dicloxacillin Sodium hydrate] + CCC(C)CCCC(=O)N[C@@H](CCN)C(=O)N[C@H](C(=O)N[C@@H](CCN)C(=O)N[C@H]1CCNC(=O)[C@H]([C@@H](C)O)NC(=O)[C@H](CCN)NC(=O)[C@H](CCN)NC(=O)[C@H](CC(C)C)NC(=O)[C@@H](CC(C)C)NC(=O)[C@H](CCN)NC1=O)[C@@H](C)O [colistin] 1.04
COc1cc(C)c(/C=C/C(C)=C/C=C/C(C)=C/C(=O)O)c(C)c1C [Acitretin] + CCC(C)CCCC(=O)N[C@@H](CCN)C(=O)N[C@H](C(=O)N[C@@H](CCN)C(=O)N[C@H]1CCNC(=O)[C@H]([C@@H](C)O)NC(=O)[C@H](CCN)NC(=O)[C@H](CCN)NC(=O)[C@H](CC(C)C)NC(=O)[C@@H](CC(C)C)NC(=O)[C@H](CCN)NC1=O)[C@@H](C)O [colistin] 0.921
Cc1cc(NS(=O)(=O)c2ccc(N)cc2)no1 [Sulfamethoxazole] + CCC(C)CCCC(=O)N[C@@H](CCN)C(=O)N[C@H](C(=O)N[C@@H](CCN)C(=O)N[C@H]1CCNC(=O)[C@H]([C@@H](C)O)NC(=O)[C@H](CCN)NC(=O)[C@H](CCN)NC(=O)[C@H](CC(C)C)NC(=O)[C@@H](CC(C)C)NC(=O)[C@H](CCN)NC1=O)[C@@H](C)O [colistin] 1.11
CC(C)CN(C[C@@H](O)[C@H](Cc1ccccc1)NC(=O)O[C@H]1CO[C@H]2OCC[C@H]21)S(=O)(=O)c1ccc(N)cc1 [Darunavir Ethanolate] + CCC(C)CCCC(=O)N[C@@H](CCN)C(=O)N[C@H](C(=O)N[C@@H](CCN)C(=O)N[C@H]1CCNC(=O)[C@H]([C@@H](C)O)NC(=O)[C@H](CCN)NC(=O)[C@H](CCN)NC(=O)[C@H](CC(C)C)NC(=O)[C@@H](CC(C)C)NC(=O)[C@H](CCN)NC1=O)[C@@H](C)O [colistin] 0.815
CC(C)C(=O)Nc1ccc([N+](=O)[O-])c(C(F)(F)F)c1 [Flutamide] + CCC(C)CCCC(=O)N[C@@H](CCN)C(=O)N[C@H](C(=O)N[C@@H](CCN)C(=O)N[C@H]1CCNC(=O)[C@H]([C@@H](C)O)NC(=O)[C@H](CCN)NC(=O)[C@H](CCN)NC(=O)[C@H](CC(C)C)NC(=O)[C@@H](CC(C)C)NC(=O)[C@H](CCN)NC1=O)[C@@H](C)O [colistin] 0.901
C[N+](C)(C)CCO.[Cl-] [Choline chloride] + CCC(C)CCCC(=O)N[C@@H](CCN)C(=O)N[C@H](C(=O)N[C@@H](CCN)C(=O)N[C@H]1CCNC(=O)[C@H]([C@@H](C)O)NC(=O)[C@H](CCN)NC(=O)[C@H](CCN)NC(=O)[C@H](CC(C)C)NC(=O)[C@@H](CC(C)C)NC(=O)[C@H](CCN)NC1=O)[C@@H](C)O [colistin] 0.983
Clc1ccc(COC(Cn2ccnc2)c2ccc(Cl)cc2Cl)cc1 (centres undefined) [Econazole] + CCC(C)CCCC(=O)N[C@@H](CCN)C(=O)N[C@H](C(=O)N[C@@H](CCN)C(=O)N[C@H]1CCNC(=O)[C@H]([C@@H](C)O)NC(=O)[C@H](CCN)NC(=O)[C@H](CCN)NC(=O)[C@H](CC(C)C)NC(=O)[C@@H](CC(C)C)NC(=O)[C@H](CCN)NC1=O)[C@@H](C)O [colistin] 0.859

2 records drawn at random from the list so far:
OD600, inactive:
Cc1onc(-c2c(Cl)cccc2Cl)c1C(=O)N[C@@H]1C(=O)N2[C@@H]1SC(C)(C)[C@@H]2C(=O)O [Dicloxacillin Sodium hydrate] + CCC(C)CCCC(=O)N[C@@H](CCN)C(=O)N[C@H](C(=O)N[C@@H](CCN)C(=O)N[C@H]1CCNC(=O)[C@H]([C@@H](C)O)NC(=O)[C@H](CCN)NC(=O)[C@H](CCN)NC(=O)[C@H](CC(C)C)NC(=O)[C@@H](CC(C)C)NC(=O)[C@H](CCN)NC1=O)[C@@H](C)O [colistin] 1.04
CC(C)C(=O)Nc1ccc([N+](=O)[O-])c(C(F)(F)F)c1 [Flutamide] + CCC(C)CCCC(=O)N[C@@H](CCN)C(=O)N[C@H](C(=O)N[C@@H](CCN)C(=O)N[C@H]1CCNC(=O)[C@H]([C@@H](C)O)NC(=O)[C@H](CCN)NC(=O)[C@H](CCN)NC(=O)[C@H](CC(C)C)NC(=O)[C@@H](CC(C)C)NC(=O)[C@H](CCN)NC1=O)[C@@H](C)O [colistin] 0.901
